Results deposited as PubChem BioAssay AID1159578 (Peter MacCallum Cancer Centre, 2015)
The deposit covers about 18,000 reagents; below is a random part of them. Of all reagents, about 1,030 (5.7%) got an active call. 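Inactive calls also include pools with fewer than 3300 nuclei, whose migration was not assessed.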 The raw values are shown without normalisation. Further read-outs or replicates are left out here.

Assay: 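siRNA pools altering how lymphatic endothelial cells close a scratch wound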 (primary screen)
Cell system: human lymphatic endothelial cells
Knock-down reagent: siRNA pool against human genes, 40 nM
Duration: 48 h after transfection
Read-out: 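High-content imaging of dye-stained cells in a scratch assay measures filled wound area and nuclei per well; duplicate means given as ratio to mock and robust z-score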
Reading the numbers: migration robust z-score: higher = faster migration into the scratch; nuclei per well: higher = more cells in the well
Active means: 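Migration changed when robust z exceeds 2 or falls below -2 and mean nuclei number is at least 3300; otherwise not called changed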
Meaning of the calls: active = migration changed; inactive = no migration change, or too few cells

ADGRA2 → migration robust z-score = -0.6; nuclei per well, duplicate mean = 5894; outcome = inactive
ALG9 → migration robust z-score = 1.06; nuclei per well, duplicate mean = 6156; outcome = inactive
TBK1 → migration robust z-score = -0.03; nuclei per well, duplicate mean = 4334; outcome = inactive
IFNA1 → migration robust z-score = 1.71; nuclei per well, duplicate mean = 7595; outcome = inactive
RCN3 → migration robust z-score = -1.66; nuclei per well, duplicate mean = 5178; outcome = inactive
PCDHA6 → migration robust z-score = 1.64; nuclei per well, duplicate mean = 5892; outcome = inactive
IRGC → migration robust z-score = 0.57; nuclei per well, duplicate mean = 6957; outcome = inactive
CNN2 → migration robust z-score = 0.48; nuclei per well, duplicate mean = 5927; outcome = inactive
UBFD1 → migration robust z-score = 0.67; nuclei per well, duplicate mean = 5622; outcome = inactive
LCE2A → migration robust z-score = -3.77; nuclei per well, duplicate mean = 1328; outcome = inactive
EREG → migration robust z-score = 0.88; nuclei per well, duplicate mean = 4210; outcome = inactive
PDE6B → migration robust z-score = -0.02; nuclei per well, duplicate mean = 6954; outcome = inactive
NEDD8 → migration robust z-score = 0.42; nuclei per well, duplicate mean = 5591; outcome = inactive
ANAPC16 → migration robust z-score = 1.25; nuclei per well, duplicate mean = 6291; outcome = inactive
ASAH1 → migration robust z-score = -2.05; nuclei per well, duplicate mean = 3722; outcome = active
RPRML → migration robust z-score = -0.52; nuclei per well, duplicate mean = 5045; outcome = inactive
OR51L1 → migration robust z-score = -1.42; nuclei per well, duplicate mean = 5904; outcome = inactive
PIP5K1C → migration robust z-score = -1.98; nuclei per well, duplicate mean = 4634; outcome = inactive
OR51T1 → migration robust z-score = -0.26; nuclei per well, duplicate mean = 5855; outcome = inactive
HAO2 → migration robust z-score = -0.26; nuclei per well, duplicate mean = 5779; outcome = inactive
ARHGAP12 → migration robust z-score = 0.39; nuclei per well, duplicate mean = 6164; outcome = inactive
SEC11A → migration robust z-score = 1.14; nuclei per well, duplicate mean = 5755; outcome = inactive
TMCO1 → migration robust z-score = 1.65; nuclei per well, duplicate mean = 5577; outcome = inactive
KRT33B → migration robust z-score = -0.41; nuclei per well, duplicate mean = 4711; outcome = inactive
BMP4 → migration robust z-score = 0.08; nuclei per well, duplicate mean = 5224; outcome = inactive
PLIN2 → migration robust z-score = -1.07; nuclei per well, duplicate mean = 5888; outcome = inactive
LYZL2 → migration robust z-score = 1.3; nuclei per well, duplicate mean = 6232; outcome = inactive

Entries listed above with an active call:
ASAH1 → migration robust z-score = -2.05; nuclei per well, duplicate mean = 3722; outcome = active
